Reference: patent US20050175545A1, “Formulation for inhalation comprising a glucocorticoid and a beta 2-adrenoreceptor agonist” (priority 2002, published 2005)
Some results were stated once for a whole list of compounds, not compound by compound.

Assay: Pharmacokinetics after intra-tracheal dry powder dosing in the pig
Type: in vivo
Details: intra-tracheal 1 mg dry powder
Procedure: Serial blood samples were taken for up to 8h following dosing.

SMILES	time of maximum plasma concentration after dosing [min]
CCC(=O)O[C@]1(C(=O)SCF)[C@H](C)C[C@H]2[C@@H]3C[C@H](F)C4=CC(=O)C=C[C@]4(C)[C@@]3(F)[C@@H](O)C[C@@]21C [Fluticasone propionate, 6α,9α-Difluoro-17α-(1-oxopropoxy)-11β-hydroxy-16α-methyl-3-oxo-androsta-1,4-diene-17β-carbothioic acid S-fluoromethyl ester, reference compound]	≤ 15
C[C@@H]1CC2C3C[C@H](F)C4=CC(=O)C=C[C@]4(C)[C@@]3(F)[C@@H](O)C[C@]2(C)[C@@]1(OC(=O)c1ccco1)C(=O)SCF (stereo partly drawn) [Example 1, 6α,9α-Difluoro-17α-[(2-furanylcarbonyl)oxy]-11β-hydroxy-16α-methyl-3-oxo-androsta-1,4-diene-17β-carbothioic acid S-fluoromethyl ester]	≤ 15
